From paper PMC10199885

The chains behind the UniProt entries cited, without tags or fusion partners. Residues count along the entry.
UniProt Q10589, residues 1-161: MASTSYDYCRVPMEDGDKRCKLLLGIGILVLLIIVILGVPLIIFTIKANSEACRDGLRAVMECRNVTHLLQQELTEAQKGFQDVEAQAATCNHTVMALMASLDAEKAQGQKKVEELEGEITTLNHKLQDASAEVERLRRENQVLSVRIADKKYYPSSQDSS
UniProt P27824, residues 21-592: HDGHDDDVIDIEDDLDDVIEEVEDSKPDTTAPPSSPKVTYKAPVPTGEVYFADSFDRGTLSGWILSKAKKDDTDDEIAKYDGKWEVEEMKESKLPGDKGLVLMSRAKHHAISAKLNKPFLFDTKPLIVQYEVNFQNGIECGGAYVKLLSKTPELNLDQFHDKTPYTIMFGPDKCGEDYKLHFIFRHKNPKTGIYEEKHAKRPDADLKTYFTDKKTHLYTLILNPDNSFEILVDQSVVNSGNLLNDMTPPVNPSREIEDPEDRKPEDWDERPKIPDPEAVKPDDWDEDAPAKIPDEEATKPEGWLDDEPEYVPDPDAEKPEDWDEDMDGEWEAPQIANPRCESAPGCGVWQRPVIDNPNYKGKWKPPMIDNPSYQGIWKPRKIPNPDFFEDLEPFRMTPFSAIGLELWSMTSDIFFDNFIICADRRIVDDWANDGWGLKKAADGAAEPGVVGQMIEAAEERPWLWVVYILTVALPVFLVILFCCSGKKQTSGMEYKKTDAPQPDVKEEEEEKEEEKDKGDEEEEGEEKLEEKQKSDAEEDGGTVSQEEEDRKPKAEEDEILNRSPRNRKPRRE

Target: HA-CD317 (expressed in HEK293T cells) (human) (UniProt Q10589)
Experiment: affinity purification with mass spectrometry; lysates of HEK293T cells expressing HA-CD317, IP with anti-HA antibody, LC-MS/MS of the IP samples

binding: binds
Substance: Calnexin (CNX), endogenous in HEK293T cells (from UniProt P27824 21-592)

Results are given in words; binding and its absence hold for the method and conditions named. Binding seen in cells or lysates may run through a third protein. These calls come from enrichment with a bait or labelling near it, and not all partners need be listed.
